# Measurements reported in the supplement of paper PMC12823440, “Inhibitors supercharge kinase turnover through native proteolytic circuits” (Nature, 2025).
# Amino acid sequences for entries named in this document (tags omitted).
# UniProt P50750, whole entry: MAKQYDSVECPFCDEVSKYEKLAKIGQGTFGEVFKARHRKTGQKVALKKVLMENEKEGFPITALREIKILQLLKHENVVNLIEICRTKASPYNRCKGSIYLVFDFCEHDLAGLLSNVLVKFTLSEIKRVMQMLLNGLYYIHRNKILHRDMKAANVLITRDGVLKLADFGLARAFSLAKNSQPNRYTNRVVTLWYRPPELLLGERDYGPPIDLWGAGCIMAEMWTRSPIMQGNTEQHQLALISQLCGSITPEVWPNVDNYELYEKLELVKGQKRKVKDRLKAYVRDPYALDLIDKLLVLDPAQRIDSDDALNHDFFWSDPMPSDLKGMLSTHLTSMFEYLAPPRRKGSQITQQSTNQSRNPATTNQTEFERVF
# UniProt O96017, whole entry: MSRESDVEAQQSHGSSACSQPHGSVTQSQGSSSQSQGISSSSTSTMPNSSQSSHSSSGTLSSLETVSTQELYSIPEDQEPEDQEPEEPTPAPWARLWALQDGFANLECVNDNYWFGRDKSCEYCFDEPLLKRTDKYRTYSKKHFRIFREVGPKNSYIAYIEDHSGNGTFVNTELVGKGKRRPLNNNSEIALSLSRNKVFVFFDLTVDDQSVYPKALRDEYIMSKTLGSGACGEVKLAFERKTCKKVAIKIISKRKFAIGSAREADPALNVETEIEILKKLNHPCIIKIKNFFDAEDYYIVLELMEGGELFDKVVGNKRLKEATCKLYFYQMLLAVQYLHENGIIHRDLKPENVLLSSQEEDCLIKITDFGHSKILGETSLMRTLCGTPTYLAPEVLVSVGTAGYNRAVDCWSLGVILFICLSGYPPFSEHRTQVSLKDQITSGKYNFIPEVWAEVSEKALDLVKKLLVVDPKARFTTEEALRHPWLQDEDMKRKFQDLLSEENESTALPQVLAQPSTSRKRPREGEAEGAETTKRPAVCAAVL
# Where a name gives a salt, the structure may show the parent alone. Some of the results follow. The calls rarely recur for the same compound in another form.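 Kinases, fused to nanoluciferase, were expressed in K562 cells; luminescence was measured every 4 h from 2 to 18 h as percent of control (DMSO = 100%, positive control = 0%). A time point is decreased if signal falls significantly (2 sigma). Hits were called by the authors by a rule that is not shown; the count of time points alone does not decide it.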
# Target: CDK9 (UniProt P50750)
# Experiment: kinase-Nluc reporter destabilization hit call (1 = scored as downregulated) (binary); higher = compound decreases kinase abundance
# Details: 10 µM; K562; 2-18 h
row,SMILES,kinase-Nluc reporter destabilization hit call
1,CCS(=O)(=O)N1CCN(c2ccc(Nc3ncc(C(N)=O)c(NC4CC4)n3)cc2)CC1 [Cerdulatinib (hydrochloride)],inactive: 0
2,C[C@@H](N)c1ccc(C(=O)Nc2ccnc3[nH]ccc23)cc1,inactive: 0
3,COc1ncc(F)cc1CNc1ccc(Cc2c[nH]c3ncc(C)cc23)c(F)n1,inactive: 0
4,CCS(=O)(=O)N1CC(CC#N)(n2cc(-c3ncnc4[nH]ccc34)cn2)C1 [Baricitinib (phosphate)],inactive: 0
5,COC(=O)[C@H](CC(C)C)NC(=O)c1ccc(NC[C@@H](N)CS)cc1-c1cccc2ccccc12 [GGTI298 (Trifluoroacetate)],inactive: 0
6,COCCOc1cc(F)c2c(Nc3ccc(NC(=O)Cn4cc(C(C)C)nn4)cc3)ncnc2c1 [AZD3229 Tosylate],inactive: 0
7,CC(C)(C)n1nc(-c2cccc3ccccc23)c2c(N)ncnc21 [1-Naphthyl PP1],inactive: 0
8,N#CCNC(=O)c1ccc(-c2ccnc(Nc3ccc(N4CCOCC4)cc3)n2)cc1 [Momelotinib sulfate],inactive: 0
9,Cn1ncc(Cl)c1-c1cc(C(=O)N[C@H](CN)Cc2cccc(F)c2)sc1Cl [Afuresertib],inactive: 0
10,CNC(=O)c1ccc(Nc2ncc(C(F)(F)F)c(NCc3nccnc3N(C)S(C)(=O)=O)n2)cc1 [Defactinib],inactive: 0
11,O=C(O)c1ccc2c(c1)nc(Nc1cccc(Cl)c1)c1ccncc12 [Silmitasertib],active: 1
12,O=C(Nc1cnn2ccc(N3CCC[C@@H]3c3cc(F)ccc3F)nc12)N1CC[C@H](O)C1 [Larotrectinib],inactive: 0
13,COc1cc2nccc(Oc3ccc(NC(=O)C4(C(=O)Nc5ccc(F)cc5)CC4)cc3)c2cc1OC [Cabozantinib (S-malate)],inactive: 0
14,CN(C)C(=N)NC(=N)N [Metformin (hydrochloride)],inactive: 0
15,COc1ccnc(C[S+]([O-])c2nc3cc(-n4cccc4)ccc3[nH]2)c1C (configuration not stated) [Ilaprazole (sodium)],inactive: 0
16,C#Cc1cccc(Nc2ncnc3cc4c(cc23)OCCOCCOCCO4)c1 [Icotinib (Hydrochloride)],inactive: 0
17,CC(C)NC[C@@H](C(=O)N1CCN(c2ncnc3c2[C@H](C)C[C@H]3O)CC1)c1ccc(Cl)cc1 [Ipatasertib],inactive: 0
18,CC(=O)c1c(C)c2cnc(Nc3ccc(N4CCNCC4)cn3)nc2n(C2CCCC2)c1=O [Palbociclib (monohydrochloride)],inactive: 0
19,C#Cc1cccc(Nc2ncnc3cc(OCCOC)c(OCCOC)cc23)c1 [Erlotinib],inactive: 0
20,OCCn1cc(-c2cnc3nnn(Cc4ccc5ncccc5c4)c3n2)cn1,inactive: 0
21,CCN(CC)CC(=O)Nc1c(C)cccc1C [Lidocaine],inactive: 0
22,CCS(=O)(=O)N1CCN(c2ccc(Nc3ncc(C(N)=O)c(NC4CC4)n3)cc2)CC1 [Cerdulatinib],inactive: 0
23,C#Cc1cccc(Nc2ncnc3cc(OCCOC)c(OCCOC)cc23)c1 [Erlotinib (Hydrochloride)],inactive: 0
24,O=C(c1ccc(F)c(F)c1Nc1ccc(I)cc1F)N1CC(O)([C@@H]2CCCCN2)C1 [Cobimetinib],inactive: 0
25,CC(C)(C)n1nc(-c2cccc3ccccc23)c2c(N)ncnc21 [1-Naphthyl PP1 (hydrochloride)],inactive: 0
26,CC(=O)c1c(C)c2cnc(Nc3ccc(N4CCNCC4)cn3)nc2n(C2CCCC2)c1=O [Palbociclib (isethionate)],inactive: 0

# Pulled one by one from the entries so far:
row,SMILES,kinase-Nluc reporter destabilization hit call
24,O=C(c1ccc(F)c(F)c1Nc1ccc(I)cc1F)N1CC(O)([C@@H]2CCCCN2)C1 [Cobimetinib],inactive: 0
26,CC(=O)c1c(C)c2cnc(Nc3ccc(N4CCNCC4)cn3)nc2n(C2CCCC2)c1=O [Palbociclib (isethionate)],inactive: 0

# Target: CHEK2 (UniProt O96017)
# Experiment: as above
# Details: 2 µM; K562; 2-18 h
row,SMILES,kinase-Nluc reporter destabilization hit call
1,CCc1nc(C(N)=O)c(Nc2ccc(N3CCC(N4CCN(C)CC4)CC3)c(OC)c2)nc1NC1CCOCC1 [Gilteritinib],inactive: 0
2,CCc1nc(C(N)=O)c(Nc2ccc(N3CCC(N4CCN(C)CC4)CC3)c(OC)c2)nc1NC1CCOCC1 [Gilteritinib hemifumarate],inactive: 0
3,Cc1[nH]c(/C=C2\C(=O)Nc3ccc(F)cc32)c(C)c1C(=O)NCCN1CCCC1 [Toceranib (phosphate)],inactive: 0
4,Cc1[nH]c(/C=C2\C(=O)Nc3ccc(F)cc32)c(C)c1C(=O)NCCN1CCCC1 [Toceranib],inactive: 0

# Same assay, conditions: 2.5 µM; K562; 2-18 h
row,SMILES,kinase-Nluc reporter destabilization hit call
1,C=CC(=O)Nc1cc(Nc2nccc(-c3cn(C)c4ccccc34)n2)c(OC)cc1N(C)CCN(C)C [Osimertinib mesylate],inactive: 0
2,c1cc(-c2cnn3cc(-c4ccc(OCCN5CCCCC5)cc4)cnc23)ccn1 [Dorsomorphin],inactive: 0
3,CN(C)C/C=C/C(=O)Nc1cc2c(Nc3ccc(F)c(Cl)c3)ncnc2cc1O[C@H]1CCOC1 [Afatinib (dimaleate)],inactive: 0
4,C=CC(=O)Nc1cc(Nc2nccc(-c3cn(C)c4ccccc34)n2)c(OC)cc1N(C)CCN(C)C [Osimertinib],inactive: 0
5,CN(C)C(=O)c1cc2cnc(Nc3ccc(N4CCNCC4)cn3)nc2n1C1CCCC1 [Ribociclib hydrochloride],inactive: 0
6,COc1ccc(S(=O)(=O)Nc2ccccc2CN(C)C/C=C/c2ccc(Cl)cc2)cc1 [KN-92 (hydrochloride)],inactive: 0
7,COc1ccc(S(=O)(=O)Nc2ccccc2CN(C)C/C=C/c2ccc(Cl)cc2)cc1 [KN-92 (phosphate)],inactive: 0
